This passage reports step yield results from PMC8179002 (Chemical Science, 2020).

Strings that start with PEPTIDE1 are HELM notation: dots part the residues, brackets hold end groups and non-standard residues.

The data set is described as follows: general procedure: solution-phase peptide synthesis; EDCI, DMAP. To be noted: late stage modification step.

For the substance “PEPTIDE1{C.G.C.E}$PEPTIDE1,PEPTIDE1,1:R3-3:R3$$$V2.0”, the step yield was 92%.
